Laboratory results taken from patent US20100077492A1.
These are yes or no findings as the source states them, for the method shown. Some results given as binding are weak or reduced against the parent protein; the word gives no strength. Tags and fused reporters may be left off the sequences shown.

Columns and labels:
[1] = target: T1, human Nth1 protein (human) (UniProt P78549); test: far western: ^32P-labelled XPG-HMK probe on hNth1 transferred from SDS-PAGE
T1 sequence (looked up): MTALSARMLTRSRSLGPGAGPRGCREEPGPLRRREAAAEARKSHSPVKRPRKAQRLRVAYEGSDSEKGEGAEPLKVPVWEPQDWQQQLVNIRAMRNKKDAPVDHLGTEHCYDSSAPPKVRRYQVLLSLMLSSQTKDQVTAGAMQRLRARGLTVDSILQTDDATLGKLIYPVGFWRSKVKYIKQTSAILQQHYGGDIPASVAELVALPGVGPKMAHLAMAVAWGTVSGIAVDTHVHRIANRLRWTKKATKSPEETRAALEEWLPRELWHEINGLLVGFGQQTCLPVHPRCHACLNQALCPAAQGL

[2] = target: T1, human Nth1 protein (human); test: slot blot: ^32P-labelled XPG-HMK probe on native proteins on nitrocellulose (FIG. 8B)
[3] = target: T1, human Nth1 protein (human); test: far western: ^32P-labelled XPG-HMK probe on proteins transferred from SDS-PAGE (FIG. 8A)

Measured: binding

B1: ^32P-labelled XPG-HMK (human XPG with a C-terminal heart muscle kinase recognition sequence tag) (enzyme)
chain: MGVQGLWKLLECSGRQVSPEALEGKILAVDISIWLNQALKGVRDRHGNSIENPHLLTLFHRLCKLLFFRIRPIFVFDGDAPLLKKQTLVKRRQRKDLASSDSRKTTEKLLKTFLKRQAIKTAFRSKRDEALPSLTQVRRENDLYVLPPLQEEEKHSSEEEDEKEWQERMNQKQALQEEFFHNPQAIDIESEDFSSLPPEVKHEILTDMKEFTKRRRTLFEAMPEESDDFSQYQLKGLLKKNYLNQHIEHVQKEMNQQHSGHIRRQYEDEGGFLKEVESRRVVSEDTSHYILIKGIQAKTVAEVDSESLPSSSKMHGMSFDVKSSPCEKLKTEKEPDATPPSPRTLLAMQAALLGSSSEEELESENRRQARGRNAPAAVDEGSISPRTLSAIKRALDDDEDVKVCAGDDVQTGGPGAEEMRINSSTENSDEGLKVRDGKGIPFTATLASSSVNSAEEHVASTNEGREPTDSVPKEQMSLVHVGTEAFPISDESMIKDRKDRLPLESAVVRHSDAPGLPNGRELTPASPTCTNSVSKNETHAEVLEQQNELCPYESKFDSSLLSSDDETKCKPNSASEVIGPVSLQETSSIVSVPSEAVDNVENVVSFNAKEHENFLETIQEQQTTESAGQDLISIPKAVEPMEIDSEESESDGSFIEVQSVISDEELQAEFPETSKPPSEQGEEELVGTREGEAPAESESLLRDNSERDDVDGEPQEAEKDAEDSLHEWQDINLEELETLESNLLAQQNSLKAQKQQQERIAATVTGQMFLESQELLRLFGIPYIQAPMEAEAQCAILDLTDQTSGTITDDSDIWLFGARHVYRNFFNKNKFVEYYQYVDFHNQLGLDRNKLINLAYLLGSDYTEGIPTVGCVTAMEILNEFPGHGLEPLLKFSEWWHEAQKNPKIRPNPHDTKVKKKLRTLQLTPGFPNPAVAEAYLKPVVDDSKGSFLWGKPDLDKIREFCQRYFGWNRTKTDESLFPVLKQLDAQQTQLRIDSFFRLAQQEKEDAKRIKSQRLNRAVTCMLRKEKEAAASEIEAVSVAMEKEFELLDKAKGKTQKRGITNTLEESSSLKRKRLSDSKGKNTCGGFLGETCLSESSDGSSSEDAESSSLMNVQRRTAAKEPKTSASDSQNSVKEAPVKNGGATTSSSSDSDDDGGKEKMVLVTARSVFGKKRRKLRRARGRKRKTRRASV
modifications: ^32P-labeled at the heart muscle kinase (HMK) recognition tag RRASV
binds: all assays above
